PubChem BioAssay AID493014 (National Center for Advancing Translational Sciences (NCATS), 2011)
Hit rate of the full screen: of about 340,000 compounds, about 170 (0.05%) were called active. The inconclusive results got no clear call from the source; some entries with a clear call stand among them for comparison. The call rests on the fitted dose curve; in most records, active means well fitted inhibition curve with a large enough effect in the signal ratio, with a control signal flat (not every such curve was filed as active); inconclusive means small, poorly fitted or top-dose-only effect, or effect the other way, or a change in a side signal; inactive means flat fitted curve, though single readings scatter; the % refers to the signal ratio. A potency beside an inconclusive call is a rough fit, not a confirmed value.

Assay: qHTS Assay to Find Inhibitors of Chronic Active B-Cell Receptor Signaling;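 on activity change, negative = inhibition: plate controls were basal doxycycline-induced cells for no effect and cells given 10 µM MG132 for full effect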
Details: ABC-DLBCL IkBa-CBG/CBR reporter, luminescence ratio (green luciferase fused to IkBa over red control in TMD8 lymphoma cells), 4 h; activity change, negative = inhibition: at 46.1 µM (top of the series)
Procedure, shortened: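 TMD8 human ABC-DLBCL cells with doxycycline-inducible IκBα–green luciferase fusion and unfused red luciferase, in 0.5% FBS medium; compounds up to 46 uM, 4 h at 37C. Green/red luminescence ratio, filter-overlap corrected, fitted to concentration-response curves.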
Potency means the concentration at half of the fitted maximal effect.

Row | SMILES | Potency | activity change, negative = inhibition
1 | CC(=O)Nc1ccc(NC(=O)Nc2ccccc2C)cc1 | inconclusive: 22.4 µM [falling, partial curve] | –
2 | O=C(Nc1cccc(-c2nc3ccccc3[nH]2)c1)c1cccc(NC(=O)c2ccco2)c1 | inconclusive: 1.46 µM [falling, partial curve] | –
3 | O=C(NC(=O)c1ccccc1)Nc1ccccn1 | inconclusive: 3.55 µM [falling, partial curve] | –
4 | CCOC(=O)C1=C(C)NC(C)=C(C(=O)OCC)C1c1ccc(OC)cc1 | – | inactive
5 | CCC1CCCCN1CCCNC(=O)c1ccc2c(c1)c(C)c(C)n2C (configuration not stated) | inconclusive: 3.98 µM [rising, single point] | –
6 | CCOc1ccc(N(Cc2ccc(C(=O)O)cc2)S(=O)(=O)c2ccc(C)cc2)cc1 | inconclusive: 35.5 µM [falling, single point] | –
7 | COc1ccc(OC)c(-n2c(SCC(=O)Nc3cc(C)on3)nnc2-c2c[nH]c3ccccc23)c1 | inconclusive: 20.6 µM [falling, partial curve] | –
8 | Cc1ccc(Cn2c(Cc3ccccc3)nc3ccccc32)cc1 | – | inactive
9 | COC(=O)c1ccc(NC(=O)CCOc2ccccc2)cc1 | – | inconclusive: 6.2%
10 | Cn1c2ccc(F)cc2c2ncn(Cc3ccco3)c(=O)c21 | inconclusive: 10.3 µM [rising, partial curve, poor fit] | –
11 | CC(=O)N1CCC(=NNc2nc3ccccc3[nH]2)CC1 | inconclusive: 28.2 µM [falling, single point] | –
12 | Cc1cccc(Nc2nc(N)nc(-c3oc4ccccc4c3C)n2)c1 | – | inconclusive: 1.81%
13 | Cc1[nH]n(C(N)=S)c(=O)c1N=Nc1ccc([N+](=O)[O-])cc1Cl | inconclusive: 3.16 µM [falling, full curve] | –
14 | O=C(Cc1ccc(S(=O)(=O)N2CCOCC2)s1)OCc1ccc(Cl)cc1 | – | inactive
15 | Cc1ccc(N=Nc2c(N)[nH]n3c(=O)cc(-c4ccccc4)nc23)cc1 | inconclusive: 3.55 µM [falling, partial curve, poor fit] | –
16 | O=C(c1ccc(Cl)c(Cl)c1)N(Cc1ccco1)c1ccc(O)cc1 | – | inconclusive: 6.33%
17 | OC(CCCN1CCC(O)(c2ccc(Cl)cc2)CC1)c1ccc(F)cc1 (configuration not stated) | – | inactive
18 | CCOC(=O)c1sc(NC(=O)COC(=O)CNC(=O)c2ccco2)c(C(=O)OCC)c1C | – | inconclusive: 0.0232%
19 | COc1ccc(N(C)S(=O)(=O)c2ccc(Cl)c(C(=O)NCC(C)(C)N3CCOCC3)c2)cc1 | – | inactive
20 | Cc1cccc2cc3c(NC(=O)C(C)C)nn(C)c3nc12 | – | inactive
21 | CC(Sc1nncn1C)C(=O)Nc1ccc2ccccc2c1 (configuration not stated) | – | inactive
22 | S=C(Nc1ccccc1Cl)Nc1ccc(Cl)cc1Cl | – | inactive
23 | CN1CCC(=C2c3ccccc3CC(=O)c3sccc32)CC1 | inconclusive: 14.1 µM [falling, single point] | inconclusive: -1.76%
24 | CCC(=O)N(C1=C(NC(C)C)C(=O)c2ccccc2C1=O)C(C)C | – | inconclusive: 26.7%
25 | O=C(c1cc(N2C(=O)C3C4CCC(C4)C3C2=O)ccc1Cl)N1CCN(c2ccc(F)cc2)CC1 (configuration not stated) | – | inconclusive: 2.64%
26 | Cc1ccc(/C=c2\s/c(=C(/C#N)C(=O)N3CCCC3)n(Cc3ccco3)c2=O)s1 | – | inconclusive: -2.62%

Row | SMILES | Potency | activity change, negative = inhibition
27 | O=C(NC1CCCc2ccccc21)c1ccc([N+](=O)[O-])cc1 (configuration not stated) | – | inconclusive: -9.63%
28 | Cc1c(C#N)c2ccccc2n1CC(=O)NCCc1c[nH]c2ccccc12 | inconclusive: 20 µM [falling, partial curve, poor fit] | –
29 | COc1ccc(-c2sc3cc4c(cc3c2C#Cc2ccc(N)cc2)OCO4)cc1 | – | inconclusive: 7.26%
30 | O=C(COC(=O)c1ccc(-c2cnc3ccccc3n2)cc1)c1ccccc1 | – | inconclusive: 0.0074%
31 | CCOc1cccc2sc(N(CCCN(C)C)C(=O)Cc3ccccc3)nc12 | – | inconclusive: 0.908%
32 | Cc1ccc(C(OCC(C)(C)C[N+](C)(C)C)c2ccccc2)cc1 (configuration not stated) | – | inactive
33 | Cc1ccc(CN2CC(C(=O)NCCCSc3ccccc3)CC2=O)cc1 (configuration not stated) | – | inconclusive: 1.33%
34 | COC(=O)c1cc2n(n1)CCN(Cc1ccc(C)cc1)C2=O | – | inconclusive: 11.5%
35 | O=C(COc1ccc(S(=O)(=O)Nc2cccc(C(F)(F)F)c2)cc1)N1CCOCC1 | – | inconclusive: -0.0893%
36 | Fc1ccc(-n2ncc3c(NCCCc4ccccc4)ncnc32)cc1 | – | inactive
37 | O=C(CCn1ccnc1)Nc1cc(Cl)ccc1O | – | inactive
38 | CCOC(=O)C1CCCN(C(=O)Cn2nc(C)n3nc(-c4ccccc4)cc3c2=O)C1 (configuration not stated) | – | inactive
39 | Cc1nn(-c2ccc(N3CCCCC3)nn2)c(C)c1CCC(=O)Nc1cccc(F)c1 | – | inactive
40 | COc1ccc(OC)c(/C=C/C(=O)OCC(=O)NC2CCCCCCC2)c1 | – | inactive
41 | COCCN(C(=O)COC(=O)/C=C/c1ccc(C(F)(F)F)cc1)c1c(N)n(Cc2ccccc2)c(=O)[nH]c1=O | – | inactive
42 | CCCn1nnnc1NC(=O)c1ccc2ccccc2c1 | – | inconclusive: -25.2%
43 | CCN(CCCNC(=O)CN1N=C(c2ccc(C)cc2)CCC1=O)c1ccccc1 | – | inconclusive: -31.5%
44 | O=C(CNC(=O)c1ccco1)NCC(c1ccco1)N1CCCCC1 (configuration not stated) | – | inconclusive: -0.977%
45 | CC(C)c1ccc(NC(=O)C2C3C=CC4(O3)C2C(=O)N(CCN2CCOCC2)C4C(=O)NC2CCCCC2)cc1 (configuration not stated) | – | inconclusive: 4.74%
46 | COc1ccc(C(C)=O)c(OC(=O)c2ccc(OC)c(OC)c2)c1 | – | inconclusive: 1.76%
47 | CC(C)Oc1cccc(C(=O)C2CCCN(Cc3cnc(N4CCCC4)s3)C2)c1 (configuration not stated) | inconclusive: 20 µM [falling, single point] | –
48 | Cc1noc(C)c1C(c1ccccc1)S(=O)(=O)c1ccccc1 (configuration not stated) | – | inactive
49 | O=C(COC(=O)c1ccco1)Nc1ccc2[nH]c(=O)[nH]c2c1 | – | inconclusive: 0.101%
50 | CC1CC(=O)c2cnc(Nc3cccc(C(F)(F)F)c3)nc2C1 (configuration not stated) | – | inconclusive: 8.63%
51 | COc1cccc(-n2nc3c(=O)n(Cc4ccccc4Cl)nc(C)c3c2C)c1 | inconclusive: 0.116 µM [falling, full curve, poor fit] | –

In the list so far, 2 contain a cyano group.
Row | SMILES | Potency | activity change, negative = inhibition
26 | Cc1ccc(/C=c2\s/c(=C(/C#N)C(=O)N3CCCC3)n(Cc3ccco3)c2=O)s1 | – | inconclusive: -2.62%
28 | Cc1c(C#N)c2ccccc2n1CC(=O)NCCc1c[nH]c2ccccc12 | inconclusive: 20 µM [falling, partial curve, poor fit] | –
